Binding signal data for 23 sequences are collected here from PMC7819943, “Rice protein-binding microarrays: a tool to detect cis-acting elements near promoter regions in rice”.

Protein sequences, listed by entry. Tags and fused reporters are not part of them.
UniProt Q0JBA9, entry or part of it: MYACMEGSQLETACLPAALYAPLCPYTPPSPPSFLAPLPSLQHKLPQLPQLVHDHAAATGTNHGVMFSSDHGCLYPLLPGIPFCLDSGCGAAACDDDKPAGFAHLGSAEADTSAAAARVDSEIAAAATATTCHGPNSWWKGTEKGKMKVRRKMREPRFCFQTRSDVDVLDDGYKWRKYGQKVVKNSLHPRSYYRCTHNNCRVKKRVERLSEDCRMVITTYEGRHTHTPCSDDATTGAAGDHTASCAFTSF

Some of the results follow.

The assay deals with OsWRKY34 (Oryza sativa, UniProt Q0JBA9 1-250). Briefly: protein-binding microarray (RPBM); PBS, 2% BSA, 51.3 ng/ul salmon testes DNA, 50 uM zinc acetate, 200 nM TF, 25 C, 1 h; high values mean tight binding. As to conditions: protein: recombinant; tags: N-terminal polyhistidine and DsRed monomer fusion (pET32a); label: CyDye5-dUTP incorporated in the synthesized complementary strand; 3' TTTTT single-stranded linker to array surface; dsDNA, one strand shown. The method, boiled down: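 Transcription factors were each fused at the N-terminus to a polyhistidine tag plus DsRed and expressed in E. coli BL21-CodonPlus before Ni–NTA purification. Binding to a double-stranded custom Agilent array was carried out with 200 nM protein at 25 °C for 1 h in PBS, 2% BSA, salmon testes DNA and 50 µM zinc acetate. The binding signal is per-feature fluorescence intensity, in arbitrary units, on an Axon 4000B scanner.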
Consider “CCACTCCACACTGGCACACTGCCCATATCCATCTATTCTGCGGAGTCACCTAGTGCAG”, for which the binding signal was 8680 fluorescence intensity (a.u.).
On to “CAAGCTGTTACTTTCTTGGTGGGCTTCTGTGTGCTTTATTCGGAGTCACCTAGTGCAG”, for which the binding signal was 9940 fluorescence intensity (a.u.).
For the sequence “TTATTTTCTAATTGTATTTCTATATGGACTTTAGTCTTCTCGGAGTCACCTAGTGCAG”, the binding signal is 8830 fluorescence intensity (a.u.).
Next, “GGATTGTTACACCGTCCTGATATCAGTTATTTGATGAATCCGGAGTCACCTAGTGCAG”: 9240 fluorescence intensity (a.u.); “TGTGGTTTACGCGTCCCGTTTAATTCTTGTGTTGACTCGGCGGAGTCACCTAGTGCAG”: 8030 fluorescence intensity (a.u.).
As for “CTCTTGTGTGTAGATCGATACTCCTACTGAATTACTCTGACGGAGTCACCTAGTGCAG”, the binding signal was 9270 fluorescence intensity (a.u.).
With “GCCCTGATGTCCGCGTCCGTGTGCGCCGCCACCGCCCGCCCGGAGTCACCTAGTGCAG”, the binding signal is 8090 fluorescence intensity (a.u.).
Regarding “TACCGCCTGAAATCCAACATTATTATGCACTGTAATTTACCGGAGTCACCTAGTGCAG”, the binding signal is 8170 fluorescence intensity (a.u.).
Take “GCTACCCCGTACTTCACCGCCTGAGTCACTAACCCAAGCCCGGAGTCACCTAGTGCAG”: the binding signal was 12500 fluorescence intensity (a.u.).
“TTGTTTATTTTCGTTGTCACGGGGTATTTTCTAGTTATCTCGGAGTCACCTAGTGCAG”: the binding signal is 11500 fluorescence intensity (a.u.).
Take “GTCCAGCTGTTTACTGACTGATTCTGTATAATTAGTTTTTCGGAGTCACCTAGTGCAG”: the binding signal is 8210 fluorescence intensity (a.u.).
For “AGCCTAGGTGAGTTCTGGATATGTCTTTGTGCTTTTTTTTCGGAGTCACCTAGTGCAG” the value was 8300 fluorescence intensity (a.u.); for “CCTTTTTGGTCCAATCCTTTTACCTTCTATTTCCTCCTCCCGGAGTCACCTAGTGCAG”, 9120 fluorescence intensity (a.u.); for “ACGCCGGCGGTGGCCCACGCTGCTGCTCGTCATCCTCGCCCGGAGTCACCTAGTGCAG”, 8890 fluorescence intensity (a.u.).
Take “CTCTTGTCGGCGTCTCTCTCTCGCGCCGCCGCCTCGGGTTCGGAGTCACCTAGTGCAG”: the binding signal is 11700 fluorescence intensity (a.u.).
For the sequence “ACCACCAGTACATATATCGTTTCGTTTGCGCCCTACCACTCGGAGTCACCTAGTGCAG”, the binding signal was 9130 fluorescence intensity (a.u.).
Consider “ACTCGCGAGACTCTCTCTCTCTCTCTCTCTCGCTCCTATTCGGAGTCACCTAGTGCAG”, for which the binding signal is 8230 fluorescence intensity (a.u.).
Turning to “CTCGCTCGCTGCTGTTTTACACTATTCACGTTTAACATTTCGGAGTCACCTAGTGCAG”, the binding signal was 9630 fluorescence intensity (a.u.).
Next, “AGGTAGTCAAGGTGGACTTATTCCTTTTGTTTCTTCCATTCGGAGTCACCTAGTGCAG”: 8900 fluorescence intensity (a.u.).
Consider “GGATGACACGTGGGCCCCACCATTTTCTAATTATTTTTTTCGGAGTCACCTAGTGCAG”, for which the binding signal was 9530 fluorescence intensity (a.u.).
Take “ATTTAGAACTGTCCATTCATCTATTCTTTTCCCGTACTAACGGAGTCACCTAGTGCAG”: the binding signal was 9880 fluorescence intensity (a.u.).
On to “ACTCCAATTCCATACTGGGCTTCTGTGTTCTGTCATTGCTCGGAGTCACCTAGTGCAG”, for which the binding signal is 9360 fluorescence intensity (a.u.).
For “AATTTGTACTGAACGGGTAGGGGTATCATTGTCATTTTCTCGGAGTCACCTAGTGCAG”, the binding signal is 14300 fluorescence intensity (a.u.).
